Reference: publication PMC5958128
No constants are given. Whether binding was seen depends on the method and setting. Binding seen in cells or lysates may run through a third protein. Some binding calls cover weakened binding; strength is not graded here.

Target: T1, PEX2-mCitrine (human) (UniProt P28328)
T1 sequence: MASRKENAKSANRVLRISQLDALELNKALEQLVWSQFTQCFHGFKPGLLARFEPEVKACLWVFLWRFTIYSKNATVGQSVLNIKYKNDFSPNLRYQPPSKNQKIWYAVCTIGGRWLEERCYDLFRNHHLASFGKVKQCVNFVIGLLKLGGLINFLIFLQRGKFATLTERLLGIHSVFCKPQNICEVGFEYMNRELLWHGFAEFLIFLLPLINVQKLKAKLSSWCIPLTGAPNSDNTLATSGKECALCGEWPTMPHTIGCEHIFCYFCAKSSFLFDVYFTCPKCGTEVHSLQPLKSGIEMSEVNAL
Assay: co-IP; HeLa cells transfected with PEX2-mCitrine; lysate in RIPA buffer precipitated with GFP-TrapA nanobody on agarose beads; second wash in 500 mM NaCl; blot with anti-GFP and anti-PMP70

binding: binds
B1: 70 kDa peroxisomal membrane protein (PMP70) (protein, UniProt P28288 1-659)
chain: MAAFSKYLTARNSSLAGAAFLLLCLLHKRRRALGLHGKKSGKPPLQNNEKEGKKERAVVDKVFFSRLIQILKIMVPRTFCKETGYLVLIAVMLVSRTYCDVWMIQNGTLIESGIIGRSRKDFKRYLLNFIAAMPLISLVNNFLKYGLNELKLCFRVRLTKYLYEEYLQAFTYYKMGNLDNRIANPDQLLTQDVEKFCNSVVDLYSNLSKPFLDIVLYIFKLTSAIGAQGPASMMAYLVVSGLFLTRLRRPIGKMTITEQKYEGEYRYVNSRLITNSEEIAFYNGNKREKQTVHSVFRKLVEHLHNFILFRFSMGFIDSIIAKYLATVVGYLVVSRPFLDLSHPRHLKSTHSELLEDYYQSGRMLLRMSQALGRIVLAGREMTRLAGFTARITELMQVLKDLNHGKYERTMVSQQEKGIEGVQVIPLIPGAGEIIIADNIIKFDHVPLATPNGDVLIRDLNFEVRSGANVLICGPNGCGKSSLFRVLGELWPLFGGRLTKPERGKLFYVPQRPYMTLGTLRDQVIYPDGREDQKRKGISDLVLKEYLDNVQLGHILEREGGWDSVQDWMDVLSGGEKQRMAMARLFYHKPQFAILDECTSAVSVDVEGYIYSHCRKVGITLFTVSHRKSLWKHHEYYLHMDGRGNYEFKQITEDTVEFGS
